Assay results: paper PMC8616561
Results are given in words; binding and its absence hold for the method and conditions named. Binding seen in cells or lysates may run through a third protein. Here binding means that the protein was enriched with, or labelled near, the bait; the list need not be complete.

By UniProt entry, the sequences of proteins in these tests, tags left out.
UniProt Q96QT4: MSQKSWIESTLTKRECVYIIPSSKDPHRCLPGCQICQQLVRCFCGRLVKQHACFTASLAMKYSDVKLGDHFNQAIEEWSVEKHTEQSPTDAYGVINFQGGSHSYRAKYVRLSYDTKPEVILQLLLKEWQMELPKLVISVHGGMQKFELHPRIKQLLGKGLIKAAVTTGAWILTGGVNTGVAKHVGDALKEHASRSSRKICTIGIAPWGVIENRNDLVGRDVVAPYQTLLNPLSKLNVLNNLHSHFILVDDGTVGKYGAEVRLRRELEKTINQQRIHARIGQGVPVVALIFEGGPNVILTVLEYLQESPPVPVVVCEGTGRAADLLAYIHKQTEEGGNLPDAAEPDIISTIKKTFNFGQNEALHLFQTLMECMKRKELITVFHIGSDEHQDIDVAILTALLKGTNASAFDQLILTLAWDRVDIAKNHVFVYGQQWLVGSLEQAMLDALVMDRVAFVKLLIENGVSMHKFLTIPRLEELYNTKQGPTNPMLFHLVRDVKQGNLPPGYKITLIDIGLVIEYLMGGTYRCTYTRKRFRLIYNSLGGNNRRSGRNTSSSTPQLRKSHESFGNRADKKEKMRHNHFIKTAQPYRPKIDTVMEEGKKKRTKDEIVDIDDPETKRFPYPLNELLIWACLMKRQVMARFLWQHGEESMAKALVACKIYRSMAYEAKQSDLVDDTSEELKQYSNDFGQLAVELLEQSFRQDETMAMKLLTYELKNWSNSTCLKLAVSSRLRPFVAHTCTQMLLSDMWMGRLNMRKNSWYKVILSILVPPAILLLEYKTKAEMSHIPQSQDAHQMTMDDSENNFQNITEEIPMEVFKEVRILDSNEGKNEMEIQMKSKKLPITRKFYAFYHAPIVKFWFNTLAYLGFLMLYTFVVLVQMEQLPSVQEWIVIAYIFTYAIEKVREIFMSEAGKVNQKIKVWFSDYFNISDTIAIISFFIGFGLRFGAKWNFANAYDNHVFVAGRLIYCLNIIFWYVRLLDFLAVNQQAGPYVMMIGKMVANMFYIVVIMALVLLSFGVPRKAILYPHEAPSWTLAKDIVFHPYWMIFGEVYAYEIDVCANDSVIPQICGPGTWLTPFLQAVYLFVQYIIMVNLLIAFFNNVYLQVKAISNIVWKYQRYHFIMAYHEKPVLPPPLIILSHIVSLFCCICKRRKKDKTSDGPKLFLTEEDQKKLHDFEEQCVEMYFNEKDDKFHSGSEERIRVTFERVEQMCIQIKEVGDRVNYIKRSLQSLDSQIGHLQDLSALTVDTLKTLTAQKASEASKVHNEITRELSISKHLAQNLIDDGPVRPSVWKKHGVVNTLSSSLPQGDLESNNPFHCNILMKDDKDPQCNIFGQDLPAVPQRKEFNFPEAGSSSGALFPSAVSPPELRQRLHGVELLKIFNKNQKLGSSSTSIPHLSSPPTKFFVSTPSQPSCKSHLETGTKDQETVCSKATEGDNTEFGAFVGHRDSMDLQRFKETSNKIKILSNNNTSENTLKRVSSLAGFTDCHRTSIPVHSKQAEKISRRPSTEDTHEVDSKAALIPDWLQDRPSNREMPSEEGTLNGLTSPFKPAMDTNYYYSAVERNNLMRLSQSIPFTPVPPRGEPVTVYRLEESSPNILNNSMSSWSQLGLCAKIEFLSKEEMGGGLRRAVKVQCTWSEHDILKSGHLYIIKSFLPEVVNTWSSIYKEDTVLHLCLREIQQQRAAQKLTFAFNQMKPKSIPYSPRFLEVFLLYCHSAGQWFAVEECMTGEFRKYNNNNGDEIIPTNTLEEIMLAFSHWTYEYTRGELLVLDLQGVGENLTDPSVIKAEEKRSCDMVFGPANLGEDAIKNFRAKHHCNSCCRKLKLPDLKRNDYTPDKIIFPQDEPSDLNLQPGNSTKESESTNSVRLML
UniProt Q923J1: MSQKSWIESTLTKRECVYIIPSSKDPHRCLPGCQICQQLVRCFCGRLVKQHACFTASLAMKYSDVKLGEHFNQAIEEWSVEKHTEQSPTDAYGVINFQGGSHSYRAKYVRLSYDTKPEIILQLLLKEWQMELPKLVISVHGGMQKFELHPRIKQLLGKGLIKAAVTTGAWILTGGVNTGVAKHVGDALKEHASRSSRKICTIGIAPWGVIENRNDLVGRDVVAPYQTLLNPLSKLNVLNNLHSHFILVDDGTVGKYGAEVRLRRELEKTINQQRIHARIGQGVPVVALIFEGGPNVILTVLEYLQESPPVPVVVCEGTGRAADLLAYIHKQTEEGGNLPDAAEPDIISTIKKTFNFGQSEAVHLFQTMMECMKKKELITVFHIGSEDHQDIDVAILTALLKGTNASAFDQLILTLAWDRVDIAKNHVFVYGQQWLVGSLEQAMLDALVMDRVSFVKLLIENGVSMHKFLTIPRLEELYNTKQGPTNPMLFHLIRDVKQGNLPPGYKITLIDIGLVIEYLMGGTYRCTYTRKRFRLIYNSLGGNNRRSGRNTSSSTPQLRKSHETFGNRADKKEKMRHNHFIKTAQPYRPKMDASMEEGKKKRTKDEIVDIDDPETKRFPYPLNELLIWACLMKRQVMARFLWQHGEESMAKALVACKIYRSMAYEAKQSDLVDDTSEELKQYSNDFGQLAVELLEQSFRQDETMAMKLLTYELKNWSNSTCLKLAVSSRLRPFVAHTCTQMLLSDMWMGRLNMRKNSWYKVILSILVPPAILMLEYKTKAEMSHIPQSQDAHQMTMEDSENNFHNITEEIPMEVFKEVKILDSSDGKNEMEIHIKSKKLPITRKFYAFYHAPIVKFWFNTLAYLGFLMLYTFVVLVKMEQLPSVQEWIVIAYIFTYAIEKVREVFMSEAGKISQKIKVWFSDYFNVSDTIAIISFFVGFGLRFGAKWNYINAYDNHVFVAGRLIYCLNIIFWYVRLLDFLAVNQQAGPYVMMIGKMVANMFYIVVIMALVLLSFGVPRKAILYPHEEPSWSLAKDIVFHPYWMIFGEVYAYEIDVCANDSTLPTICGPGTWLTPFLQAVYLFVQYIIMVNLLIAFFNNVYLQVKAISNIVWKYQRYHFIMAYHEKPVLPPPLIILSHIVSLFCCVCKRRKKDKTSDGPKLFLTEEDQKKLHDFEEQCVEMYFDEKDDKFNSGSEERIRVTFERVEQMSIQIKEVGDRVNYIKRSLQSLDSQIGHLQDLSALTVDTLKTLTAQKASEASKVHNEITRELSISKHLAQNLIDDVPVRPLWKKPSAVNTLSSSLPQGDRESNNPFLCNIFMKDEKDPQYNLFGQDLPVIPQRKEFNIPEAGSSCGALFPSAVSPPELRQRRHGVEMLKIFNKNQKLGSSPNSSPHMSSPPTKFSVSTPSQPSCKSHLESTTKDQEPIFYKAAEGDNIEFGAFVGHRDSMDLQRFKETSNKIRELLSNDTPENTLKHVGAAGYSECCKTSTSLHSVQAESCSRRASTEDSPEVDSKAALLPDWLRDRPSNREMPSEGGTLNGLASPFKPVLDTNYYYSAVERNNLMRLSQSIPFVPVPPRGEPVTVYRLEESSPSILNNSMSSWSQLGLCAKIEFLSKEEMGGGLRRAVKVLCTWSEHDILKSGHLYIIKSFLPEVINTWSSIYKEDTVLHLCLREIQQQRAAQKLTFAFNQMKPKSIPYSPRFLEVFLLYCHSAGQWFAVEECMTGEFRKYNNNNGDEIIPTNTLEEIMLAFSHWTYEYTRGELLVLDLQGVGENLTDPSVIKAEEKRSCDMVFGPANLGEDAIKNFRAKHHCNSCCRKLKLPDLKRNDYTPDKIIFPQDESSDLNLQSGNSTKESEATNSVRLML
UniProt Q0GA42: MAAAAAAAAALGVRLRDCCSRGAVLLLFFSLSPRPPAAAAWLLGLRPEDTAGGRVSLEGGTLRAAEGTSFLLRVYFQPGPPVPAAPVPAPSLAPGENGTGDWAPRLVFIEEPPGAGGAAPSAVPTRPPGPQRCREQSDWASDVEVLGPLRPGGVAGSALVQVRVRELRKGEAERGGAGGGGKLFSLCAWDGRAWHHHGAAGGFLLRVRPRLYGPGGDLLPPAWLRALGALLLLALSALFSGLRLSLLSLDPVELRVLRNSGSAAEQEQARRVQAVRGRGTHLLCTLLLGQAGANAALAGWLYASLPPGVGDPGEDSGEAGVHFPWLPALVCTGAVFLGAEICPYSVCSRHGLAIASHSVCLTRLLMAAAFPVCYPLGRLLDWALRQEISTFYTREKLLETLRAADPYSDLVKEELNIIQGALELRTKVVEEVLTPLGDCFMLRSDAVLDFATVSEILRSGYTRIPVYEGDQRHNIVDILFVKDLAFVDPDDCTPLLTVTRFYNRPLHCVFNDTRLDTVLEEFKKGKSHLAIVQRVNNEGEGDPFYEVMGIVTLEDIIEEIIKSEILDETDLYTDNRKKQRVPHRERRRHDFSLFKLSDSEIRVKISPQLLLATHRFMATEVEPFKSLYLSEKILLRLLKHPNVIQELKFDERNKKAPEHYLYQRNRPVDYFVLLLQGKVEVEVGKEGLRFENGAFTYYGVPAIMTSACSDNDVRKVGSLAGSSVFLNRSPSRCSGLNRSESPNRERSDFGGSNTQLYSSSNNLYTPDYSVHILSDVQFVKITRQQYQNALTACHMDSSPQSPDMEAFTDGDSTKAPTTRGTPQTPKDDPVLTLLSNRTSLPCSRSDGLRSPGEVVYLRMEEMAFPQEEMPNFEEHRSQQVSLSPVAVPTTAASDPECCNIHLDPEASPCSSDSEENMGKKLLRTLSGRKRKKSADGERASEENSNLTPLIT

Biological target: TRPM7, endogenous in HEK293 cells (human (endogenous in HEK293)) (UniProt Q96QT4)
Assay: affinity purification with mass spectrometry; multi-epitope APs with anti-TRPM7 antibodies cross-linked to Dynabeads, membrane fractions of HEK293 cells solubilised with CL-47 or CL-91, 2 hr on ice; control: TRPM7-/- HEK293 cells; nanoLC-MS/MS, label-free quantification

binding | Molecule
binds | CNNM4, endogenous in HEK293 cells (protein, UniProt Q6P4Q7 1-775) MAPVGGGGRPVGGPARGRLLLAAPVLLVLLWALGARGQGSPQQGTIVGMRLASCNKSCGTNPDGIIFVSEGSTVNLRLYGYSLGNISSNLISFTEVDDAETLHKSTSCLELTKDLVVQQLVNVSRGNTSGVLVVLTKFLRRSESMKLYALCTRAQPDGPWLKWTDKDSLLFMVEEPGRFLPLWLHILLITVLLVLSGIFSGLNLGLMALDPMELRIVQNCGTEKERRYARKIEPIRRKGNYLLCSLLLGNVLVNTSLTILLDNLIGSGLMAVASSTIGIVIFGEILPQALCSRHGLAVGANTILLTKFFMLLTFPLSFPISKLLDFFLGQEIRTVYNREKLMEMLKVTEPYNDLVKEELNMIQGALELRTKTVEDIMTQLQDCFMIRSDAILDFNTMSEIMESGYTRIPVFEDEQSNIVDILYVKDLAFVDPDDCTPLKTITRFYNHPVHFVFHDTKLDAMLEEFKKGKSHLAIVQKVNNEGEGDPFYEVLGLVTLEDVIEEIIKSEILDESDMYTDNRSRKRVSEKNKRDFSAFKDADNELKVKISPQLLLAAHRFLATEVSQFSPSLISEKILLRLLKYPDVIQELKFDEHNKYYARHYLYTRNKPADYFILILQGKVEVEAGKENMKFETGAFSYYGTMALTSVPSDRSPAHPTPLSRSASLSYPDRTDVSTAATLAGSSNQFGSSVLGQYISDFSVRALVDLQYIKITRQQYQNGLLASRMENSPQFPIDGCTTHMENLAEKSELPVVDETTTLLNERNSLLHKASHENAI
binds | CNNM3, endogenous in HEK293 cells (protein, UniProt Q8NE01 1-707) MAAAVAAAGRLGWLFAALCLGNAAGEAAPGPRVLGFCLEEDGAAGAGWVRGGAARDTPDATFLLRLFGPGFANSSWSWVAPEGAGCREEAASPAGEWRALLRLRLRAEAVRPHSALLAVRVEPGGGAAEEAAPPWALGLGAAGLLALAALARGLQLSALALAPAEVQVLRESGSEAERAAARRLEPARRWAGCALGALLLLASLAQAALAVLLYRAAGQRAVPAVLGSAGLVFLVGEVVPAAVSGRWTLALAPRALGLSRLAVLLTLPVALPVGQLLELAARPGRLRERVLELARGGGDPYSDLSKGVLRCRTVEDVLTPLEDCFMLDASTVLDFGVLASIMQSGHTRIPVYEEERSNIVDMLYLKDLAFVDPEDCTPLSTITRFYNHPLHFVFNDTKLDAVLEEFKRGKSHLAIVQKVNNEGEGDPFYEVLGLVTLEDVIEEIIRSEILDESEDYRDTVVKRKPASLMAPLKRKEEFSLFKVSDDEYKVTISPQLLLATQRFLSREVDVFSPLRISEKVLLHLLKHPSVNQEVRFDESNRLATHHYLYQRSQPVDYFILILQGRVEVEIGKEGLKFENGAFTYYGVSALTVPSSVHQSPVSSLQPIRHDLQPDPGDGTHSSAYCPDYTVRALSDLQLIKVTRLQYLNALLATRAQNLPQSPENTDLQVIPGSQTRLLGEKTTTAAGSSHSRPGVPVEGSPGRNPGV
binds | CNNM2, endogenous in HEK293 cells (protein, UniProt Q9H8M5 1-875) MIGCGACEPKVKMAGGQAAAALPTWKMAARRSLSARGRGILQAAAGRLLPLLLLSCCCGAGGCAAVGENEETVIIGLRLEDTNDVSFMEGGALRVSERTRVKLRVYGQNINNETWSRIAFTEHERRRHSPGERGLGGPAPPEPDSGPQRCGIRTSDIIILPHIILNRRTSGIIEIEIKPLRKMEKSKSYYLCTSLSTPALGAGGSGSTGGAVGGKGGSGVAGLPPPPWAETTWIYHDGEDTKMIVGEEKKFLLPFWLQVIFISLLLCLSGMFSGLNLGLMALDPMELRIVQNCGTEKEKNYAKRIEPVRRQGNYLLCSLLLGNVLVNTTLTILLDDIAGSGLVAVVVSTIGIVIFGEIVPQAICSRHGLAVGANTIFLTKFFMMMTFPASYPVSKLLDCVLGQEIGTVYNREKLLEMLRVTDPYNDLVKEELNIIQGALELRTKTVEDVMTPLRDCFMITGEAILDFNTMSEIMESGYTRIPVFEGERSNIVDLLFVKDLAFVDPDDCTPLKTITKFYNHPLHFVFNDTKLDAMLEEFKKGKSHLAIVQRVNNEGEGDPFYEVLGIVTLEDVIEEIIKSEILDETDLYTDNRTKKKVAHRERKQDFSAFKQTDSEMKVKISPQLLLAMHRFLATEVEAFSPSQMSEKILLRLLKHPNVIQELKYDEKNKKAPEYYLYQRNKPVDYFVLILQGKVEVEAGKEGMKFEASAFSYYGVMALTASPVPLSLSRTFVVSRTELLAAGSPGENKSPPRPCGLNHSDSLSRSDRIDAVTPTLGSSNNQLNSSLLQVYIPDYSVRALSDLQFVKISRQQYQNALMASRMDKTPQSSDSENTKIELTLTELHDGLPDETANLLNEQNCVTHSKANHSLHNEGAI
binds | ADP-ribosylation factor-like protein 15, endogenous in HEK293 cells (protein, UniProt Q9NXU5 1-204) MSDLRITEAFLYMDYLCFRALCCKGPPPARPEYDLVCIGLTGSGKTSLLSKLCSESPDNVVSTTGFSIKAVPFQNAILNVKELGGADNIRKYWSRYYQGSQGVIFVLDSASSEDDLEAARNELHSALQHPQLCTLPFLILANHQDKPAARSVQEIKKYFELEPLARGKRWILQPCSLDDMDALKDSFSQLINLLEEKDHEAVRM

Biological target: Transient receptor potential melastatin-subfamily member 7 (TRPM7), native channel in mouse brain (mouse (endogenous in mouse brain)) (UniProt Q923J1)
Assay: affinity purification with mass spectrometry; multi-epitope APs with anti-TRPM7 antibodies cross-linked to Dynabeads, membrane fractions of adult mouse and rat brain solubilised with CL-47 or CL-91, 2 hr on ice; controls: target-unrelated antibodies; nanoLC-MS/MS, label-free quantification

binding | Molecule
binds | Transporter CNNM1, Cyclin-M1, endogenous in rodent brain (from UniProt Q0GA42 1-951)
binds | Transporter CNNM2, Cyclin-M2, endogenous in rodent brain (protein, UniProt Q5U2P1 1-875) MIGCGACEPEVKMAGGQAAAALPTWKMAARRSLSARGRGVLQAAAGRLLPLLLLSCCCSAGGCTAAGENEETVIIGLRLEDTNDVSFMEGGALRVSERTRVKLRVYGQNINNETWSRIAFTEHERRRHTPGERGLGGPAPPEPDSGPQRCGIRTSDIIILPHIILNRRTSGIIEIEIKPLRKMEKSKSYYLCTSLSTPALGAGGSGSASGTVGGKGGAGVAGLPPPPWAETTWIYHDGEDTKMIVGEEKKFLLPFWLQVIFISLLLCLSGMFSGLNLGLMALDPMELRIVQNCGTEKEKNYAKRIEPVRRQGNYLLCSLLLGNVLVNTTLTILLDDIAGSGLVAVVVSTIGIVIFGEIVPQAICSRHGLAVGANTIFLTKFFMMMTFPASYPVSKLLDCVLGQEIGTVYNREKLLEMLRVTDPYNDLVKEELNIIQGALELRTKTVEDVMTPLRDCFMITGEAILDFNTMSEIMESGYTRIPVFEGERSNIVDLLFVKDLAFVDPDDCTPLKTITKFYNHPLHFVFNDTKLDAMLEEFKKGKSHLAIVQRVNNEGEGDPFYEVLGIVTLEDVIEEIIKSEILDETDLYTDNRTKKKVAHRERKQDFSAFKQTDSETKVKISPQLLLAMHRFLATEVEAFSPSQMSEKILLRLLKHPNVIQELKYDEKNKKAPECYLYQRNKPVDYFVLILQGKVEVEAGKEGMKFEASAFSYYGVMALTASPVPLSLSRTFVVSRTEVLAAGSPGENKSPPRPCGLNHSDSLSRSDRIDAMTPTLGSSNNQLSSSFLQVYIPDYSVRALSDLQFVKISRQQYQNALMASRMDKTPQSSDSENTKIELTLTEMHDGLPDETANLLNEQNCVSHNKANHSLHSEGAI
binds | Transporter CNNM4, Cyclin-M4, endogenous in rodent brain (protein, UniProt Q69ZF7 1-771) MAPGGGGGRRDGWPARGRLLLAALLLLWTRAASGQSSPQQSVILGMRLASCNKSCGMNPDGIIFVSEGSTVNLRLYGHSLGDISSNLISFTEVDDAEAVHNSTNCLELTKDLVVQRLVNVSRGNTSGMLVVITKFLRRSENMKLYALCTRPRADGPWTRWTDKDSLLFMVEEHGRFLPLWLHILLVMVLLVLSGIFSGLNLGLMALDPMELRIVQNCGTEKERKYARKIEPIRRKGNYLLCSLLLGNVLVNTSLTILLDNLIGSGIMAVASSTIGIVIFGEILPQALCSRHGLAVGANTIVLTKVFMLLTFPLSFPISKLLDFVLGQEIRTVYNREKLMEMLKVTEPYNDLVKEELNMIQGALELRTKTVEDIMTQLHDCFMIRSDAILDFNTMSEIMESGYTRIPVFEDEQSNIVDILYVKDLAFVDPDDCTPLKTITRFYNHPVHFVFHDTKLDAMLEEFKKGKSHLAIVQKVNNEGEGDPFYEVLGLVTLEDVIEEIIKSEILDESDMYTDNRTRKRVSVKNKRDFSAFKDTDNELKVKISPQLLLAAHRFLATEVPQFSPSLMSEKILLRLLKYPDVIQELRFNEHNRYCVRHYLYTRNKPADCFVLILQGKVEVEAGKENMKFETGAFSYYGTMALSVAPPDRSPALPTPLSRSASLSYPDRNTDLTSTSLAGSNQFGSCILGQYVSDFSVRALTDLQYIKITRQQYQNGLMASRMDNSPQPTFDGCATCSENFMERPELPPVDETTTLLNERNSLLHRASEEETI
binds | ADP-ribosylation factor-like protein 15, endogenous in rodent brain (protein, UniProt Q8BGR6 1-204) MSDLRITEAFLYMDYLCFRALCCKGPPPARPEYDLVCIGLTGSGKTSLLSELCSESPENVVSTTGFSIKAVPFQNAVLNVKELGGADNIRKYWSRYYQGSQGVIFVLDSASSEDDLETARNELHSALQHPQLCTLPFLILANHQDKPAARSVQEIKKYFELEPLARGKRWILQPCSLDDVDTLKDSFSQLINLLEEKDHEAVRM
binds | Transporter CNNM3, Cyclin-M3, endogenous in rodent brain (protein, UniProt Q32NY4 1-713) MAAAAAAVVGWLGWVLAAFCLGSTAGEAAPAPGAGLLNFCTEEDSAPGAGSLRGRAAPEATLCLRLFCSGLANSSWTWVAAEGAGCPEGGRATEPEEAAAPTGEWRALLRLRAEAGHPRSALLAVRVEPGGGAAEEAAPPWALGLGAAGLLALAAVARGLQLSALALAPAEVQVLRESGSEAERAAARRLEPARRWAGCALGALLLLASLAQAALAVLLYGAAGQRAVPAVLGCAGLVFLVGEVLPAAVSGRWALALAPRALGLSRLAVLLTLPVALPVGQLLELAARPGRLRERVLELARGGGDPYSDLSKGVLRSRTVEDVLTPLEDCFMLDSGTVLDFSVLASIMQSGHTRIPVYEEERSNIVDMLYLKDLAIVEPEDCTPLSTITRFYNHPLHFVFNDTKLDAVLEEFKRGKSHLAIVQKVNNEGEGDPFYEVLGLVTLEDVIEEIIKSEILDESEDYSDTKVRKKTVALGAPLKRKEEFSLFKVSDDEYKVKISPQLLLATQRFLSREVDVFSPLRVSEKVLLHLLKHPSVNQEVTFDESNRLAAHHYLYQRSQPVDYFILILQGRVEVEIGKEGLKFENGAFTYYGVSALTAPSSAHQSPVSSRQLIRHDVQPEPADGTRSCTYCPDYTVRALSDLQLIKVTRLQYLNALLATRAQSLPPSPENAELQAIPGSQTRLLGDKSRETAGSTNSRPSIPVEESPGRNPGV
